Measured values published in the supplement of paper PMC10849652.
This is one part of the list.

Protein sequences, listed by entry. Tags and fused reporters are not part of them. Lines headed by an entry give the natural chain unless they say otherwise; changes in a name come on top.
UniProt P11177, whole entry, looked up: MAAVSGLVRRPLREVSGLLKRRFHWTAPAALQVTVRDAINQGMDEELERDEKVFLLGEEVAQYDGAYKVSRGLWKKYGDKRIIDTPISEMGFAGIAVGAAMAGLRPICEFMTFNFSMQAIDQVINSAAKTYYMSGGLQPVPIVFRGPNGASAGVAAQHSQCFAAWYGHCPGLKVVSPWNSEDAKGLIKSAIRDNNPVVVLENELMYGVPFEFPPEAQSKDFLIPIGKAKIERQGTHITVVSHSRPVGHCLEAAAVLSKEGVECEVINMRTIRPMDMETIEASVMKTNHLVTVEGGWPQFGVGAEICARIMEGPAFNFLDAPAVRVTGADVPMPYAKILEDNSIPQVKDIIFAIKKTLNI
UniProt Q9NUG6, whole entry, looked up: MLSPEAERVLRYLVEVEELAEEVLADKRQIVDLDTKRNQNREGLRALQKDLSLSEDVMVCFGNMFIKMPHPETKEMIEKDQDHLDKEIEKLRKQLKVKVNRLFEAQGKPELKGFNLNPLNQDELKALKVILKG
UniProt P50479: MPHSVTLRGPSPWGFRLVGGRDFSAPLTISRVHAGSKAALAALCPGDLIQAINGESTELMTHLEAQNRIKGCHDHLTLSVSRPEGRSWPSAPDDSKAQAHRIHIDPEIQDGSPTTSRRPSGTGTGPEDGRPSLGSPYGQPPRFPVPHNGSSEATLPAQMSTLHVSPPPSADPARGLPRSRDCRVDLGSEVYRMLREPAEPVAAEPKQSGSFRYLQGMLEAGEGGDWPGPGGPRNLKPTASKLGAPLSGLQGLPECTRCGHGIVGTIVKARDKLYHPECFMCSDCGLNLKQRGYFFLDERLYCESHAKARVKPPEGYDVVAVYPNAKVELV
UniProt P05165: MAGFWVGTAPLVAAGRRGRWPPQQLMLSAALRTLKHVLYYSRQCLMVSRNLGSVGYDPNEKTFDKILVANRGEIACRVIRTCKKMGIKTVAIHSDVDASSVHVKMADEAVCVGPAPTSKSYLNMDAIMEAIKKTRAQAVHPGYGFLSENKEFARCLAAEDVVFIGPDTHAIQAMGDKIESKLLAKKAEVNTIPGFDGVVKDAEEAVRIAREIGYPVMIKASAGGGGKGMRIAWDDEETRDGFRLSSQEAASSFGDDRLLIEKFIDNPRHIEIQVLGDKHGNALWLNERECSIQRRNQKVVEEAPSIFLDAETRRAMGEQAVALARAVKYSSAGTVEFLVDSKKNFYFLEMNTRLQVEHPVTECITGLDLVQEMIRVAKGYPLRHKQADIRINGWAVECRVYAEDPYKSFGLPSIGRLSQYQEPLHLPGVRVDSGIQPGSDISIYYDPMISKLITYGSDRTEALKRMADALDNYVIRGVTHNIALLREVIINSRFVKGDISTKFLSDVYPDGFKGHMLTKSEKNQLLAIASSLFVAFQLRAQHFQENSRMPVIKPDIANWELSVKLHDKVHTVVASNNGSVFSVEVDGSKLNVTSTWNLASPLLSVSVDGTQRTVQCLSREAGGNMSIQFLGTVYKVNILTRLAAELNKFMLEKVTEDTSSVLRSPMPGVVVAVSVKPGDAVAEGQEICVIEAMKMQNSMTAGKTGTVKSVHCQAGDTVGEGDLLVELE
UniProt Q9NP74: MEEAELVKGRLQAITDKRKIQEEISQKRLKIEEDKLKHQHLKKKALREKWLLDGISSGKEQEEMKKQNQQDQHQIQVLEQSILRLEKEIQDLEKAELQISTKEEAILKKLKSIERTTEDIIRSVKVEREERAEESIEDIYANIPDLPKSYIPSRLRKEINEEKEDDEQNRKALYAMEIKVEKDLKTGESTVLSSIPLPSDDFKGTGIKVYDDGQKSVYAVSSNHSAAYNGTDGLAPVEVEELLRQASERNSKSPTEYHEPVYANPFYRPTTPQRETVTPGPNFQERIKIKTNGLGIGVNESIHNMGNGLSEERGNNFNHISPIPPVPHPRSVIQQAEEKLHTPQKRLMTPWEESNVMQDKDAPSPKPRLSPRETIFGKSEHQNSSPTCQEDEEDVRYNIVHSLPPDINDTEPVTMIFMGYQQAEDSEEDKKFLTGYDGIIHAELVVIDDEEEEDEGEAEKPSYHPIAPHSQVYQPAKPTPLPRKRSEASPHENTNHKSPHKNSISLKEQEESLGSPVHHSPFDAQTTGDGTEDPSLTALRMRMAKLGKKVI
UniProt P13667: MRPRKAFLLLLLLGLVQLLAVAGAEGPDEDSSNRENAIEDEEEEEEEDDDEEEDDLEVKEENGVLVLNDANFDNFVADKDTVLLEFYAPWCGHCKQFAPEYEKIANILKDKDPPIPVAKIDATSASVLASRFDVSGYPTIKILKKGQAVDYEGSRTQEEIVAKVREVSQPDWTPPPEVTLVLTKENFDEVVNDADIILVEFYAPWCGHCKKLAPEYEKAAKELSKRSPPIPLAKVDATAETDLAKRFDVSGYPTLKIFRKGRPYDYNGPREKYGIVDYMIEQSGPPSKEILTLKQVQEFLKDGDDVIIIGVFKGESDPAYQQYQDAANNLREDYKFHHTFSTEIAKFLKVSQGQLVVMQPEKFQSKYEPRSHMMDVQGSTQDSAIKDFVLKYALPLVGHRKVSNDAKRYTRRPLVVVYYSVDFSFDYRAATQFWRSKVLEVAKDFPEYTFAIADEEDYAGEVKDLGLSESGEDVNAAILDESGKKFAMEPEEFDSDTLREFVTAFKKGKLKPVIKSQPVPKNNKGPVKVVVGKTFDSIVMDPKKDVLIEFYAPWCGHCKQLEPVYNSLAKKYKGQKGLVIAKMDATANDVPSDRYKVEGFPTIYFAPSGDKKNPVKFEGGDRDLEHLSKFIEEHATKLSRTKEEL
UniProt Q96HC4: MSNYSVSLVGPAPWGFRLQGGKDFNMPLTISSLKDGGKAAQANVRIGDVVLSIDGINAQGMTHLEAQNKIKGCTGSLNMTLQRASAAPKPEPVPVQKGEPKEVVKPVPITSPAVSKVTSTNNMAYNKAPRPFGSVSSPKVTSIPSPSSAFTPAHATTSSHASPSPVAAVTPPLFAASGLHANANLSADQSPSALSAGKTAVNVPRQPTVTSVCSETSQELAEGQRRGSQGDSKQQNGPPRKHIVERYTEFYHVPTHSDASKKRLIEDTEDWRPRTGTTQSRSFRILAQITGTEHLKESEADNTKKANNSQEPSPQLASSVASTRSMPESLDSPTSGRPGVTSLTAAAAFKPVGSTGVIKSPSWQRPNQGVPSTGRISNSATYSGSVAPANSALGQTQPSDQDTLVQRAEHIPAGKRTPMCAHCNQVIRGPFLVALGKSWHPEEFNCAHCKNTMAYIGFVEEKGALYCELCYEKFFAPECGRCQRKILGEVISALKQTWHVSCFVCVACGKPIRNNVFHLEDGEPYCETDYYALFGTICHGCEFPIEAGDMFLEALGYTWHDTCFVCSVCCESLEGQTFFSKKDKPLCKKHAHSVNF
UniProt Q6ZW49, whole entry, looked up: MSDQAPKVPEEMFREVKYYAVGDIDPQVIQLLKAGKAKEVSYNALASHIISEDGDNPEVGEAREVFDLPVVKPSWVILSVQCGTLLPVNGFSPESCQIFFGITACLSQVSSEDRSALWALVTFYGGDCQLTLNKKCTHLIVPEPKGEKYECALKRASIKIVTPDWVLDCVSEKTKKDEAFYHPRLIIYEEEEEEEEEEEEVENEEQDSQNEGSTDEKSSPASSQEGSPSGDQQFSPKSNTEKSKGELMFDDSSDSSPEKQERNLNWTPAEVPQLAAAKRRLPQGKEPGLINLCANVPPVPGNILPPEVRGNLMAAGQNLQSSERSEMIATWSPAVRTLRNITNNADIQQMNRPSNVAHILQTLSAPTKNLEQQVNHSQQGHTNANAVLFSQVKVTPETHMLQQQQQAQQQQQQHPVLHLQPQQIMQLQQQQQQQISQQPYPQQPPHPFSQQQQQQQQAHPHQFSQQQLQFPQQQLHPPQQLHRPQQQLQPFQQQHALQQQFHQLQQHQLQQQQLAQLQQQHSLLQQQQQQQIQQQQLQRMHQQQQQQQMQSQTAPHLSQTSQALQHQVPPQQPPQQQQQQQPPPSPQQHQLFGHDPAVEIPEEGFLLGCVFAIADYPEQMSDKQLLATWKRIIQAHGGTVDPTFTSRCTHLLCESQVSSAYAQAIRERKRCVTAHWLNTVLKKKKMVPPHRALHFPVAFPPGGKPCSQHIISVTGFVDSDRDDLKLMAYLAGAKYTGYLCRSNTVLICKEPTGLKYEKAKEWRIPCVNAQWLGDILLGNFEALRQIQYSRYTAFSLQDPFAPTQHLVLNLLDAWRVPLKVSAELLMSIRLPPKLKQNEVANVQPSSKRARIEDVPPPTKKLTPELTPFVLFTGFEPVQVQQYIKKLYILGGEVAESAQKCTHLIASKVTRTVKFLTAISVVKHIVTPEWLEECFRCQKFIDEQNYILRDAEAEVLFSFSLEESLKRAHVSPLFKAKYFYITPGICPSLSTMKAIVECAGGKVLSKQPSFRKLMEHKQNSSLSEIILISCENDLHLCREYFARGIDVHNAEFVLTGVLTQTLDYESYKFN
UniProt O75381, whole entry, looked up: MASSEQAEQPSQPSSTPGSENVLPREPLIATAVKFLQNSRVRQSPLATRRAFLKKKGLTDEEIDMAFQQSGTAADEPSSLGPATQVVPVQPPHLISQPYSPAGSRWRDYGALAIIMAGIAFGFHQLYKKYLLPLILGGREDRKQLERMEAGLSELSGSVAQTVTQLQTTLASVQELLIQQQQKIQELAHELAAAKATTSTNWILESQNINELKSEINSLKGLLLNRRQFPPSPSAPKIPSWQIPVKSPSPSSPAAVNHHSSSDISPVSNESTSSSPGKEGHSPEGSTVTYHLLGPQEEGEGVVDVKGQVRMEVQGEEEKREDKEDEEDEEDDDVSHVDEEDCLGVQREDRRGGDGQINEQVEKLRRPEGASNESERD
UniProt Q9BYG5: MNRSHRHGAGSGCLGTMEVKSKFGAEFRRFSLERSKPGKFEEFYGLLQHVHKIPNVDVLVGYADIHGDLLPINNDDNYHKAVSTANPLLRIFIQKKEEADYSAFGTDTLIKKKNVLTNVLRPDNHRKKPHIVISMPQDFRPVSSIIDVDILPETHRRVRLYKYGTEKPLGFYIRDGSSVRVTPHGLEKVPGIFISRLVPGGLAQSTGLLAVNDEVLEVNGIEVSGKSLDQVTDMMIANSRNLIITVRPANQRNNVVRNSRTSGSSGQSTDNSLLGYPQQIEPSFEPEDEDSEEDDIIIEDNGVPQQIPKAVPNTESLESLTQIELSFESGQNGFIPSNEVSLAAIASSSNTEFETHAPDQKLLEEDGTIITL
UniProt P22234: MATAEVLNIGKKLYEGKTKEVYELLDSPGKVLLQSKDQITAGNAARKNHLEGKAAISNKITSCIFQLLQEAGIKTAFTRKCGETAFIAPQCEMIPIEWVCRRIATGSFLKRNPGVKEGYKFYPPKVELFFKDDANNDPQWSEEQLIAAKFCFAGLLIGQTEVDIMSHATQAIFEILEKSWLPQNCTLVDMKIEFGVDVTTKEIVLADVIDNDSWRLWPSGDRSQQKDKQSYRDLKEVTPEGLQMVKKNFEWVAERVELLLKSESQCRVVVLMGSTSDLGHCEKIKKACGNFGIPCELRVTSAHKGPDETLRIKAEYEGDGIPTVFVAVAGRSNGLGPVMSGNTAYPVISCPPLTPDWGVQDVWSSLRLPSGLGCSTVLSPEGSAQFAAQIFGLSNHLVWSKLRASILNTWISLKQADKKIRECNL
UniProt O00541, whole entry, looked up: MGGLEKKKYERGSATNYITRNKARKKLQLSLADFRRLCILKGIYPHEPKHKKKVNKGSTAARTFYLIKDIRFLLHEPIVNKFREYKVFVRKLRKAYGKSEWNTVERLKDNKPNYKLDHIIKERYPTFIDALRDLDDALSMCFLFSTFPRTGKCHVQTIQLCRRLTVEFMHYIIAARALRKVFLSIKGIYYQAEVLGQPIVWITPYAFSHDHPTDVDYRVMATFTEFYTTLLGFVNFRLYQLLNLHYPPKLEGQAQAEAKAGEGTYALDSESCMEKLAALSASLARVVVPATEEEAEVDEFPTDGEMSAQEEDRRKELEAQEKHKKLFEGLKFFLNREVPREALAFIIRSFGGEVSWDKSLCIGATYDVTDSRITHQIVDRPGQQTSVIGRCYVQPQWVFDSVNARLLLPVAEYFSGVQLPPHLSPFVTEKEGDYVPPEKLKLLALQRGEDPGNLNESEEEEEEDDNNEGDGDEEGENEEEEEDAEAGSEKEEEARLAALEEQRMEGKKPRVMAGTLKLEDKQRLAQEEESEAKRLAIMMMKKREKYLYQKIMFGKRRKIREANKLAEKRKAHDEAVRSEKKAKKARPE
UniProt P08559, whole entry, looked up: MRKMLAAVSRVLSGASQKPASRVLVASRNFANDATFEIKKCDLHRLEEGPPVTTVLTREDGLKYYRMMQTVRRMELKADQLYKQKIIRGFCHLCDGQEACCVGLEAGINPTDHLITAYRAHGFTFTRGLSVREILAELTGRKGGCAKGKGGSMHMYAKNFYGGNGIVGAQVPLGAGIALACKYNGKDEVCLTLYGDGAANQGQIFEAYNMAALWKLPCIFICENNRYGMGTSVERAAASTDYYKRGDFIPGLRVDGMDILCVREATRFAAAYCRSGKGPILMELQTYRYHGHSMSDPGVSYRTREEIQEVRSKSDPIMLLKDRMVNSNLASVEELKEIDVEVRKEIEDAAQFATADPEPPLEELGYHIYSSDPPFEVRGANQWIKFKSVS

Legend:
Assay in all cases: log2 fold change, soluble protein after heating vs DMSO (PISA); higher = thermal stabilisation; K562 cells, 10 uM, 30 min; active = over 0.2 and 3.5 SD of the protein, either way, in both replicates (recomputed)
[1] = compound: NC(=O)Nc1cc(-c2cccc(F)c2)sc1C(=O)N[C@H]1CCCNC1
How it was run: (§1)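 For each measurement, 10 μM compound was applied for 30 min to K562 cells at 2×10^6 cells/mL. Aliquots were heated for 3 min across 48°C-58°C, pooled, and extracted in PBS with 0.5% NP-40 at 4°C; the supernatant after 21,000xg for 90 min was soluble protein. This was quantified by TMTpro 16plex LC-MS/MS with channel sums equalised, and thermal stability was reported relative to control samples from duplicates, on a log2 fold-change scale.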

[2] = compound: NC(=O)c1cnc(N[C@@H]2CCCC[C@@H]2N)nc1Nc1cccc(-n2nccn2)c1
How it was run: as §1

[3] = compound: NC1(c2ccc(-c3nc4ccn5c(=O)[nH]nc5c4cc3-c3ccccc3)cc2)CCC1
How it was run: as §1

[4] = compound: NCC(=O)Nc1ccc(-n2nc(C(F)(F)F)cc2-c2ccc3c(ccc4ccccc43)c2)cc1
How it was run: as §1

[5] = compound: Nc1ccccc1NC(=O)c1ccc(CNC(=O)OCc2cccnc2)cc1 [entinostat]
How it was run: as §1

[6] = compound: O=C(CCCCCCC(=O)Nc1ccccc1)NO [vorinostat]
How it was run: as §1

[7] = compound: O=C(CCCCCCNC(=O)c1cnc(N(c2ccccc2)c2ccccc2Cl)nc1)NO [citarinostat]
How it was run: as §1

[8] = compound: O=C(O)c1ccc2c(c1)nc(Nc1cccc(Cl)c1)c1ccncc12 [silmitasertib]
How it was run: as §1

[9] = compound: O=C1NC(=O)C(c2cnc3ccccn23)=C1c1cn2c3c(cc(F)cc13)CN(C(=O)N1CCCCC1)CC2
How it was run: as §1

[10] = compound: c1cc(OCCN2CCCCC2)cc(-c2n[nH]c3ccc(-c4nnc[nH]4)cc23)c1
How it was run: as §1

[11] = compound: c1cn2cc(-c3ccc4cn[nH]c4c3)nc(Nc3ccc(N4CCOCC4)cc3)c2n1 [entospletinib]
How it was run: as §1

Measured: log2 fold change

PCBD1 (UniProt P61457)
inactive: [1] -0.062 | [2] -0.099 | [3] 0.015 | [4] 0.006 | [5] 0.002 | [6] -0.028 | [7] 0.041 | [8] 0.025 | [9] -0.016 | [10] -0.053 | [11] 0.04

PARK7 (UniProt Q99497)
inactive: [1] 0.251 | [2] 0.074 | [3] -0.042 | [4] 0.244 | [5] 0.112 | [6] 0.041 | [7] 0.165 | [8] -0.098 | [9] 0.031 | [10] 0.07 | [11] -0.063

PAGE1 (UniProt O75459)
inactive: [1] -0.057 | [2] 0.075 | [3] 0.083 | [4] 0.08 | [5] -0.018 | [6] -0.061 | [7] -0.129 | [8] -0.01 | [9] -0.059 | [10] -0.024 | [11] 0.054

PAK1IP1 (UniProt Q9NWT1)
inactive: [1] 0.072 | [2] 0.078 | [3] 0.255 | [4] 0.153 | [5] -0.063 | [6] -0.006 | [7] -0.119 | [8] 0.243 | [9] 0.263 | [10] -0.215 | [11] 0.101

PDHB (UniProt P11177)
inactive: [1] -0.024 | [2] -0.009 | [3] -0.061 | [4] 0.061 | [5] -0.003 | [6] -0.01 | [7] -0.011 | [8] -0.022 | [9] 0.132 | [10] -0.066 | [11] 0.112

PDRG1 (UniProt Q9NUG6)
inactive: [1] 0.004 | [2] -0.118 | [3] 0.018 | [4] -0.029 | [5] 0.01 | [6] -0.017 | [7] -0.014 | [8] 0.011 | [9] 0.018 | [10] -0.072 | [11] -0.032

PEBP1 (UniProt P30086)
inactive: [1] 0.031 | [2] 0.027 | [3] 0.103 | [4] 0.027 | [5] -0.028 | [6] -0.023 | [7] 0.026 | [8] -0.04 | [9] 0.01 | [10] -0.008 | [11] 0.008

PBDC1 (UniProt Q9BVG4)
inactive: [1] -0.002 | [2] -0.022 | [3] -0.095 | [4] -0.047 | [5] 0.031 | [6] 0.044 | [7] 0.042 | [8] -0.026 | [9] -0.022 | [10] -0.086 | [11] -0.006

PDLIM4 (UniProt P50479)
inactive: [1] 0.045 | [2] -0.09 | [3] 0.019 | [4] -0.034 | [5] -0.03 | [6] -0.023 | [7] 0.051 | [8] -0.016 | [9] -0.073 | [10] -0.013 | [11] -0.036

PAK3 isoform 3 (UniProt O75914)
inactive: [1] 0.062 | [2] -0.014 | [3] 0.03 | [4] 0.058 | [5] 0.034 | [6] 0.014 | [7] 0.092 | [8] -0.009 | [9] -0.044 | [10] 0.026 | [11] -0.023

PDCD5 (UniProt O14737)
inactive: [1] 0.198 | [2] -0.017 | [3] 0.055 | [4] -0.036 | [5] 0.09 | [6] -0.013 | [7] 0.024 | [8] -0.012 | [9] 0.163 | [10] -0.052 | [11] -0.016

PCSK9 (UniProt Q8NBP7)
inactive: [1] -0.029 | [2] 0.004 | [3] -0.001 | [4] 0.323 | [5] -0.044 | [6] 0.006 | [7] 0.01 | [8] 0.032 | [9] 0.029 | [10] -0.061 | [11] -0.137

PCCA (UniProt P05165)
inactive: [1] 0.002 | [2] -0.066 | [3] -0.067 | [4] -0.022 | [5] -0.004 | [6] 0.045 | [7] -0.011 | [8] -0.051 | [9] -0.042 | [10] -0.062 | [11] 0.025

PALMD (UniProt Q9NP74)
inactive: [1] -0.169 | [2] 0.015 | [3] 0.068 | [4] 0.06 | [5] -0.135 | [6] -0.021 | [7] 0.157 | [8] 0.029 | [9] 0.019 | [10] 0.024 | [11] -0.019

PCNA (UniProt P12004)
inactive: [1] 0.008 | [2] -0.002 | [3] -0.034 | [4] -0.017 | [5] 0.005 | [6] -0.018 | [7] 0.008 | [8] 0 | [9] -0.013 | [10] -0.04 | [11] -0.034

PDIA4 (UniProt P13667)
inactive: [1] 0.02 | [2] 0.004 | [3] -0.018 | [4] 0.017 | [5] 0.005 | [6] -0.023 | [7] 0.018 | [8] -0.028 | [9] 0.037 | [10] -0.053 | [11] -0.011

Taken from the listing (two entries):
PCCA (UniProt P05165)
inactive: [1] 0.002 | [2] -0.066 | [3] -0.067 | [4] -0.022 | [5] -0.004 | [6] 0.045 | [7] -0.011 | [8] -0.051 | [9] -0.042 | [10] -0.062 | [11] 0.025

PALMD (UniProt Q9NP74)
inactive: [1] -0.169 | [2] 0.015 | [3] 0.068 | [4] 0.06 | [5] -0.135 | [6] -0.021 | [7] 0.157 | [8] 0.029 | [9] 0.019 | [10] 0.024 | [11] -0.019

(next part)

PDLIM5 (UniProt Q96HC4)
inactive: [1] -0.008 | [2] -0.063 | [3] 0.015 | [4] -0.028 | [5] 0.007 | [6] 0.011 | [7] 0.043 | [8] 0.015 | [9] -0.003 | [10] -0.048 | [11] -0.032

PAXIP1 (UniProt Q6ZW49)
inactive: [1] -0.089 | [2] -0.517 | [3] 0.008 | [4] -0.088 | [5] -0.092 | [6] -0.092 | [7] -0.209 | [8] 0.111 | [9] -0.034 | [10] -0.068 | [11] -0.163

PARVB (UniProt Q9HBI1)
inactive: [1] -0.017 | [2] -0.06 | [3] -0.093 | [4] -0.039 | [5] 0.011 | [6] 0.096 | [7] 0.035 | [8] -0.022 | [9] -0.022 | [10] -0.038 | [11] 0.018

PASK (UniProt Q96RG2)
inactive: [1] -0.005 | [2] 0.006 | [3] -0.023 | [4] -0.112 | [5] 0.002 | [6] 0.071 | [7] -0.029 | [8] 0.053 | [9] 0.02 | [10] 0.021 | [11] -0.026

PEX14 (UniProt O75381)
inactive: [1] 0.048 | [2] -0.046 | [3] -0.008 | [4] 0.037 | [5] 0.106 | [6] 0.013 | [7] 0.057 | [8] -0.017 | [9] 0.123 | [10] 0.02 | [11] -0.064

PARD6B (UniProt Q9BYG5)
inactive: [1] -0.043 | [2] -0.176 | [3] -0.094 | [4] 0.021 | [5] 0.138 | [6] -0.027 | [7] -0.083 | [8] 0.077 | [9] -0.087 | [10] -0.136 | [11] 0.073

PAPSS1 (UniProt O43252)
inactive: [1] -0.005 | [2] -0.05 | [3] -0.086 | [4] -0.042 | [5] -0.009 | [6] 0.025 | [7] 0.023 | [8] -0.015 | [9] -0.037 | [10] -0.027 | [11] 0.015

PAICS (UniProt P22234)
inactive: [1] -0.003 | [2] 0.025 | [3] 0.064 | [4] -0.008 | [5] -0.013 | [6] -0.029 | [7] -0.085 | [8] -0.044 | [9] -0.031 | [10] 0.012 | [11] 0.045

PCM1 isoform 5 (UniProt Q15154)
inactive: [1] 0.056 | [2] 0.011 | [3] 0.139 | [4] 0.051 | [5] 0.031 | [6] 0.034 | [7] 0.061 | [8] 0.196 | [9] 0.092 | [10] -0.198 | [11] 0.026

PES1 (UniProt O00541)
inactive: [1] 0.024 | [2] -0.023 | [3] 0.072 | [4] -0.021 | [5] 0.003 | [6] 0.109 | [7] -0.031 | [8] 0.122 | [9] 0.08 | [10] -0.087 | [11] -0.112

PDHA1 isoform 4 (UniProt P08559)
inactive: [1] -0.005 | [2] 0.03 | [3] -0.068 | [4] 0.125 | [5] -0.001 | [6] 0.059 | [7] 0 | [8] -0.041 | [9] 0.096 | [10] -0.062 | [11] 0.104
